Binding data for one substance are collected here from publication PMC12432198.

By UniProt entry, the sequences of proteins in these tests, tags left out.
UniProt Q09472: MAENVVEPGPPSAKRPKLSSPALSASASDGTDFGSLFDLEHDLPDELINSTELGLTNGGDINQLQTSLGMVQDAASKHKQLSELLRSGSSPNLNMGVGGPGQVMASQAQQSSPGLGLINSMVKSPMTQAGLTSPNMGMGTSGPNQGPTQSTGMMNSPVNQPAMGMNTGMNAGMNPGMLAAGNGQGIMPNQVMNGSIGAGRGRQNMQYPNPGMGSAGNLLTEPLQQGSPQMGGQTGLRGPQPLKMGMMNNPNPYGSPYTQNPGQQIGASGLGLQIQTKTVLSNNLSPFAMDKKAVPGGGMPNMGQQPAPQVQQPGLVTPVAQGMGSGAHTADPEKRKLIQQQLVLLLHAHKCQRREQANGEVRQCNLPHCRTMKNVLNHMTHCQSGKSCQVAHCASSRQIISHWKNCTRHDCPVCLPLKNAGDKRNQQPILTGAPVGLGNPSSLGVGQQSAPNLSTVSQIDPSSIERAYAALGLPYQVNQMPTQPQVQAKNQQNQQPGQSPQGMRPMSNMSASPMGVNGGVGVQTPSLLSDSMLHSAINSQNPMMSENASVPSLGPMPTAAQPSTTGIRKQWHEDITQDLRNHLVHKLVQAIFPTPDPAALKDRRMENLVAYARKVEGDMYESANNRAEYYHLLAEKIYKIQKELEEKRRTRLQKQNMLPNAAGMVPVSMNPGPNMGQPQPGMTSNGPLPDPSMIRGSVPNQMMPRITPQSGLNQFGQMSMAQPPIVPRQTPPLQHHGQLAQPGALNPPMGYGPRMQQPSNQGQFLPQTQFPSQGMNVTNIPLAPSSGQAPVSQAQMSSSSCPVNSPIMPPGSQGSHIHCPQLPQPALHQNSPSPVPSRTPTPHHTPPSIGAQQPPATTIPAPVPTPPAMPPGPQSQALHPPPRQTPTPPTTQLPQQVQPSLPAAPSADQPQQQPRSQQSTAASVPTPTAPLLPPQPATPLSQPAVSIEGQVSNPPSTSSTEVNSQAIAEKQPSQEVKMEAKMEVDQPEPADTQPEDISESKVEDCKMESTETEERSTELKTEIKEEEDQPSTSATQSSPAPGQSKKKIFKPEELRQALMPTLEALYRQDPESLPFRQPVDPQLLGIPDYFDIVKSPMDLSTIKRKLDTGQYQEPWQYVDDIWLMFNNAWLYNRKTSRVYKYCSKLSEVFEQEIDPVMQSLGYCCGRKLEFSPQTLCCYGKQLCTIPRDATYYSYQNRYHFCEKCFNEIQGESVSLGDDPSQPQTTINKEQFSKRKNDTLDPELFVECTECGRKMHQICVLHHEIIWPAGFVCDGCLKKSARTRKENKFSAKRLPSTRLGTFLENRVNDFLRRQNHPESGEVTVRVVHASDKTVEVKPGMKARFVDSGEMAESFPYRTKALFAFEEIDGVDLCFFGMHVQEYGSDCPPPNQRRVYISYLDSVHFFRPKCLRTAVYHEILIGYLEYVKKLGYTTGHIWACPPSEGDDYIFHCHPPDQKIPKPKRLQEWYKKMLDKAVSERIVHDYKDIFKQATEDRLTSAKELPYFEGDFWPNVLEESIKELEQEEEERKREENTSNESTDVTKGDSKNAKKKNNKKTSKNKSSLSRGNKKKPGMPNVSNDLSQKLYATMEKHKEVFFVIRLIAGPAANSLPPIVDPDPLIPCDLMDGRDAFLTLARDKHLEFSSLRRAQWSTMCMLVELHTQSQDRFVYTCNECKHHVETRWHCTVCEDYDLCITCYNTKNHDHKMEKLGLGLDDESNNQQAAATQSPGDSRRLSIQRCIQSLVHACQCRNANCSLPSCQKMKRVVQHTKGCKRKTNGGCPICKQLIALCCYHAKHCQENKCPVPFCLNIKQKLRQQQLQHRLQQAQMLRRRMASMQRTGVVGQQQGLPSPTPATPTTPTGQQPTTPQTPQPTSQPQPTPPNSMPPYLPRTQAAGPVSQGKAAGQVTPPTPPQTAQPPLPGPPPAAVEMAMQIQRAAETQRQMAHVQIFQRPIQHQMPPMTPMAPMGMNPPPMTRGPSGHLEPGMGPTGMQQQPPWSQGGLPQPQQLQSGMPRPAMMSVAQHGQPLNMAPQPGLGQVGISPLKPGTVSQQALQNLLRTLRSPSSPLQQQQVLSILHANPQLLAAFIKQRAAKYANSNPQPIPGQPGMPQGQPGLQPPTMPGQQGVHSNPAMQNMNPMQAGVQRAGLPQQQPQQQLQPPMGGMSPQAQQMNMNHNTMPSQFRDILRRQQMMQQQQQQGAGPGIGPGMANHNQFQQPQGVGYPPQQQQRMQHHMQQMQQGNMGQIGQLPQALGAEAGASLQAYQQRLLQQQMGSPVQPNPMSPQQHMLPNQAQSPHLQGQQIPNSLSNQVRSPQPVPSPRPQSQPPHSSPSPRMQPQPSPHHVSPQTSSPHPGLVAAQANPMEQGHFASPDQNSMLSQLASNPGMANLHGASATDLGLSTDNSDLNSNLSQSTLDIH

These are yes or no findings as the source states them, for the method shown. Binding seen in cells or lysates may run through a third protein. A yes stands for co-enrichment or nearness to the bait. Other partners may have been found. Tags and fused reporters may be left off the sequences shown.

This test has as its target T1, Flag-GCLC ectopically expressed in Huh7 cells (human) (UniProt P48506).
T1 sequence: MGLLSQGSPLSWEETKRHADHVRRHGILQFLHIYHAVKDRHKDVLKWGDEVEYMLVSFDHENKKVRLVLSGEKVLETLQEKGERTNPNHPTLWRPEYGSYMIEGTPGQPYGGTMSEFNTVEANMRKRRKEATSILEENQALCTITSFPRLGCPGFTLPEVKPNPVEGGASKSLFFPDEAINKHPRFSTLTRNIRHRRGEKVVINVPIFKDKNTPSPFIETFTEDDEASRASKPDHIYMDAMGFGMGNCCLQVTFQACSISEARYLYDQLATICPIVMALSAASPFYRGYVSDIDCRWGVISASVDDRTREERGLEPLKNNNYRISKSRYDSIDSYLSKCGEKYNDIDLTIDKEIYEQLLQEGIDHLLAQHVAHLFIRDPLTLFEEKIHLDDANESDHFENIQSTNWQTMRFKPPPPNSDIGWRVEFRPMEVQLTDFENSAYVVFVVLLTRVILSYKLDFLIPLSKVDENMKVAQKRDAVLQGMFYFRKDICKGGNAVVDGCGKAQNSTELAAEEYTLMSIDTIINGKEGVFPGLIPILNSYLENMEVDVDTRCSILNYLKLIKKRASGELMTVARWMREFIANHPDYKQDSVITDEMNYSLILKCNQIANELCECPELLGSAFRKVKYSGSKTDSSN
The experiment in a line: affinity purification with mass spectrometry; tandem affinity purification coupled with mass spectrometry on lysates of Huh7 cells ectopically expressing Flag-GCLC.

Consider “histone acetyltransferase P300 (found with Flag-GCLC in Huh7 lysates) (from UniProt Q09472 1-2414) (enzyme)”, for which the binding result is given as “binds”.
